No constants are given. Whether binding was seen depends on the method and setting. In cells and extracts the contact can be indirect. Some binding calls cover weakened binding; strength is not graded here.
B1: MEN1 (protein, UniProt O00255 1-610)
chain: MGLKAAQKTLFPLRSIDDVVRLFAAELGREEPDLVLLSLVLGFVEHFLAVNRVIPTNVPELTFQPSPAPDPPGGLTYFPVADLSIIAALYARFTAQIRGAVDLSLYPREGGVSSRELVKKVSDVIWNSLSRSYFKDRAHIQSLFSFITGTKLDSSGVAFAVVGACQALGLRDVHLALSEDHAWVVFGPNGEQTAEVTWHGKGNEDRRGQTVNAGVAERSWLYLKGSYMRCDRKMEVAFMVCAINPSIDLHTDSLELLQLQQKLLWLLYDLGHLERYPMALGNLADLEELEPTPGRPDPLTLYHKGIASAKTYYRDEHIYPYMYLAGYHCRNRNVREALQAWADTATVIQDYNYCREDEEIYKEFFEVANDVIPNLLKEAASLLEAGEERPGEQSQGTQSQGSALQDPECFAHLLRFYDGICKWEEGSPTPVLHVGWATFLVQSLGRFEGQVRQKVRIVSREAEAAEAEEPWGEEAREGRRRGPRRESKPEEPPPPKKPALDKGLGTGQGAVSGPPRKPPGTVAGTARGPEGGSTAQVPAPTASPPPEGPVLTFQSEKMKGMKELLVATKINSSAIKLQLTAQSQVQMKKQKVSTPSDYTLSFLKRQRKGL

Amino acid sequences for entries named in this document (tags omitted).
UniProt Q02548: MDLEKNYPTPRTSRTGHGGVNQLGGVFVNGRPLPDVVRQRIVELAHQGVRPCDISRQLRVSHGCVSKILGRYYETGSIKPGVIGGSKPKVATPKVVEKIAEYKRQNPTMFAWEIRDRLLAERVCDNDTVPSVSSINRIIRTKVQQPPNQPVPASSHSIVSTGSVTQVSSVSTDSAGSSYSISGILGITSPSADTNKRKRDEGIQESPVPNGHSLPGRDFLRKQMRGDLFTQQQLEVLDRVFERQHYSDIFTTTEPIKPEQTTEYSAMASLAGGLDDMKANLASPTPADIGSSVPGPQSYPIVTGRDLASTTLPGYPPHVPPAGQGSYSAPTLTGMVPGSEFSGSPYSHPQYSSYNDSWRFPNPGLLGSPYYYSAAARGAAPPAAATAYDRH
UniProt Q03164: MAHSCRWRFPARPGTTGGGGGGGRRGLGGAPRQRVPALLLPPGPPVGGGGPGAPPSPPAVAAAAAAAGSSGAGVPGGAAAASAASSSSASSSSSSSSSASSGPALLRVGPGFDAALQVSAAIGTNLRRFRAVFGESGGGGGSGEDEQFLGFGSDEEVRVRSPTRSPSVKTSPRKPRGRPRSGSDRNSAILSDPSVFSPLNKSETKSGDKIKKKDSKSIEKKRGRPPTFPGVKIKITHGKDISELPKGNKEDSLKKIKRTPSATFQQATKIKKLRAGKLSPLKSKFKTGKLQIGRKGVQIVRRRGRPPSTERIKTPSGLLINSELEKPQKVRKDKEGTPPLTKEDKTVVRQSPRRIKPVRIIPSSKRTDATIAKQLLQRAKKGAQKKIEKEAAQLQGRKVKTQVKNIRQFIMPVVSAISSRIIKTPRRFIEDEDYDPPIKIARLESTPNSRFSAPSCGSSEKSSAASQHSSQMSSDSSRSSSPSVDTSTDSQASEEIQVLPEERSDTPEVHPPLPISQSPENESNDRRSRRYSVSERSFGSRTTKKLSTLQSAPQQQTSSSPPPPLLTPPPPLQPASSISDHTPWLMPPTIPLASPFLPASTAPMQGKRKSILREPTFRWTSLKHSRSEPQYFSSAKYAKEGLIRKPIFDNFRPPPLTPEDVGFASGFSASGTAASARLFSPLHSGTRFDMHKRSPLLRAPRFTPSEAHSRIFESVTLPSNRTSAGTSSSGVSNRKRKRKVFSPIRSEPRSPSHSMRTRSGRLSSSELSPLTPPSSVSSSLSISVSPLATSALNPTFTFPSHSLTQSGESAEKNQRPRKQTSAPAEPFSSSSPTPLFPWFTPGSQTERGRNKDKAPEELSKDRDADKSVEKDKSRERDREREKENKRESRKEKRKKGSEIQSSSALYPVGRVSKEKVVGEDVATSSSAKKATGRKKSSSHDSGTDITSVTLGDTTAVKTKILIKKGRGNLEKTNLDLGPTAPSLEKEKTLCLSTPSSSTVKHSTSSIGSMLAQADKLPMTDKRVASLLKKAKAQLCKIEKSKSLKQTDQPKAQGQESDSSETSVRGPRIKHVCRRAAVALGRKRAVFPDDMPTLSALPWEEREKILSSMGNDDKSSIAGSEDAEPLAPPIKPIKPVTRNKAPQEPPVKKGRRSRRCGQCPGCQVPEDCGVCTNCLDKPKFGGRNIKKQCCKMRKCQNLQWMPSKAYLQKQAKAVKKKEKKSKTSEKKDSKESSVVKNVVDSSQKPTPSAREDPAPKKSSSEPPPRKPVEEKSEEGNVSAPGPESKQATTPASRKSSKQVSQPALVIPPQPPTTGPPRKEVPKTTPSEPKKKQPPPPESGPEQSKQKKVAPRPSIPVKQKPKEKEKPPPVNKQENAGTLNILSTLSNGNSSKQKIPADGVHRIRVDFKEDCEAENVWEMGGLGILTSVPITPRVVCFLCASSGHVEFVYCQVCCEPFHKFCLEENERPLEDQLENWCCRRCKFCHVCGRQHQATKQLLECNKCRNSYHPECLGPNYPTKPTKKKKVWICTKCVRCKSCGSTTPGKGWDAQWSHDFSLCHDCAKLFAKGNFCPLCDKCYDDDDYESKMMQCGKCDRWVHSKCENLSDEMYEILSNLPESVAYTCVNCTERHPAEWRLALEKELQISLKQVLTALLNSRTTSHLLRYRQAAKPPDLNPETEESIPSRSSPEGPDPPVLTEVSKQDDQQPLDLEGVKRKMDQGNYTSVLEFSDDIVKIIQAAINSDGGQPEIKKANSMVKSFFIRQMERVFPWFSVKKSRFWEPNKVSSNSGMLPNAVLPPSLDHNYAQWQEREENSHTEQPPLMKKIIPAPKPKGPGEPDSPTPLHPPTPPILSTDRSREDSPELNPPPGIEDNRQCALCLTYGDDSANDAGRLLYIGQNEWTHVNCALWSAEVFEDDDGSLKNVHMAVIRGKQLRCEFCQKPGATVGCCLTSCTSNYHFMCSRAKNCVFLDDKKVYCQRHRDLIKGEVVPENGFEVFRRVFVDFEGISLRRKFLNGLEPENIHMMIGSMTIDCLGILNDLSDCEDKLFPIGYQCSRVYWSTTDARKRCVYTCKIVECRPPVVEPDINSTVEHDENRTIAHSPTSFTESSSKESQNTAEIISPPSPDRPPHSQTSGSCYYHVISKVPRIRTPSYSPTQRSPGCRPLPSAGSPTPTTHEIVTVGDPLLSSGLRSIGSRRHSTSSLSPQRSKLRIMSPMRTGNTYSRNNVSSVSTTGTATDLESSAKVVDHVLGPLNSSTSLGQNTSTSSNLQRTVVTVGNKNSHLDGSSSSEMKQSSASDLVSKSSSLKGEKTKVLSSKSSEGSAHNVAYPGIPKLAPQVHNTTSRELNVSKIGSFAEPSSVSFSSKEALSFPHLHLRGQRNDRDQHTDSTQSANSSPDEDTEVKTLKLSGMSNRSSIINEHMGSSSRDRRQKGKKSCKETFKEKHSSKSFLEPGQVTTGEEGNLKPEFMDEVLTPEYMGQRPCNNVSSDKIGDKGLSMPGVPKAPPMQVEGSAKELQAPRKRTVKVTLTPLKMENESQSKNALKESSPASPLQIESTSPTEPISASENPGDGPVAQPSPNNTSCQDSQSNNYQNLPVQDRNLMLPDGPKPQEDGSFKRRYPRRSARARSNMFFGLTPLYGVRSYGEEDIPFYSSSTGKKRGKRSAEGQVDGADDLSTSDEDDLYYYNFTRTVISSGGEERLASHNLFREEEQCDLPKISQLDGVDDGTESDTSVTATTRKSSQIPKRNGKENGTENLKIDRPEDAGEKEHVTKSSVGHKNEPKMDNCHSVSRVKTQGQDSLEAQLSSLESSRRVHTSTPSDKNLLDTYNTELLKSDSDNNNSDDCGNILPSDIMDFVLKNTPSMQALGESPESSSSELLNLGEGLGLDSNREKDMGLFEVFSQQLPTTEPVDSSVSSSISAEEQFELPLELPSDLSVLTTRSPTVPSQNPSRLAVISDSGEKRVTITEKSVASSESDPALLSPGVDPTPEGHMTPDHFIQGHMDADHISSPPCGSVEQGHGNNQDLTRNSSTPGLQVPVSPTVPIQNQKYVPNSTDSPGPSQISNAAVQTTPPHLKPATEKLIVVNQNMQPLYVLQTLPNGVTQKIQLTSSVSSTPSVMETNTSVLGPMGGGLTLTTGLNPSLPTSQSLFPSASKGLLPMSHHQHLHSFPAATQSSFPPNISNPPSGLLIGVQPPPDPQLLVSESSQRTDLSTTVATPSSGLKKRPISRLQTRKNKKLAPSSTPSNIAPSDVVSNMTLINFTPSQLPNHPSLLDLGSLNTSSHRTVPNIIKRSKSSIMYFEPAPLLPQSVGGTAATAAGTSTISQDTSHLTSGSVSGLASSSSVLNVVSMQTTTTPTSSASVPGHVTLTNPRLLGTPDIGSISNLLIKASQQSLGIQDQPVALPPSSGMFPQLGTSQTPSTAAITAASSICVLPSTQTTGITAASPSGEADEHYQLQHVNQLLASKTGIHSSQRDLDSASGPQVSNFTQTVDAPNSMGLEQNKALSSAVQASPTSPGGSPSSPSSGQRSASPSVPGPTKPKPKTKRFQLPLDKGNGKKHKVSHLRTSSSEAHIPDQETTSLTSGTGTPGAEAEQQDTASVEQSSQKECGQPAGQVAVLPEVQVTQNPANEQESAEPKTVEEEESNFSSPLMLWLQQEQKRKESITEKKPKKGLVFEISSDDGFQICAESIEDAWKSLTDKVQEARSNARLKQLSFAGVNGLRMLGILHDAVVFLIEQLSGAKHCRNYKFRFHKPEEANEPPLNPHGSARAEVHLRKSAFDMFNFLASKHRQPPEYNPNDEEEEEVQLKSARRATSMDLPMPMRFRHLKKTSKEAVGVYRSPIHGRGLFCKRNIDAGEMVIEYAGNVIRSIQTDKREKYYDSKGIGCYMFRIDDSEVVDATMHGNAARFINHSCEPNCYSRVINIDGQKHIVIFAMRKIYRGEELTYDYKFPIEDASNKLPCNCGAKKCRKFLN

Tests used:
[1] = molecular target: PAX5 (human (endogenous in KIS-1, REH, GM12878, NALM6 and RAJI)) (UniProt Q02548); assay: co-IP; anti-PAX5 (sc-1974) co-IP from KIS-1 + EBF1 nuclear extracts (lysed with Benzonase), with and without doxycycline induction of EBF1 for 48 h; overnight at 4 °C, Dynabeads; Western blot
[2] = molecular target: PAX5 (human (endogenous in KIS-1, REH, GM12878, NALM6 and RAJI)) (UniProt Q02548); assay: co-IP; anti-PAX5 (sc-1974) co-IP from REH nuclear extract; Western blot
[3] = molecular target: PAX5 (human (endogenous in KIS-1, REH, GM12878, NALM6 and RAJI)) (UniProt Q02548); assay: co-IP; anti-PAX5 (sc-1974) co-IP from GM12878 nuclear extract; Western blot

Molecule | binding [1] | binding [2] | binding [3]
KMT2A, the catalytic component of MLL (from UniProt Q03164 1-3969) | binds |  | 
B1 | binds | binds | binds
